{"sequences": {"note": "Amino acid sequences for entries named in this document (tags omitted). A change or cut given only in a name is not applied to a line headed by its entry.", "UniProt Q01638": "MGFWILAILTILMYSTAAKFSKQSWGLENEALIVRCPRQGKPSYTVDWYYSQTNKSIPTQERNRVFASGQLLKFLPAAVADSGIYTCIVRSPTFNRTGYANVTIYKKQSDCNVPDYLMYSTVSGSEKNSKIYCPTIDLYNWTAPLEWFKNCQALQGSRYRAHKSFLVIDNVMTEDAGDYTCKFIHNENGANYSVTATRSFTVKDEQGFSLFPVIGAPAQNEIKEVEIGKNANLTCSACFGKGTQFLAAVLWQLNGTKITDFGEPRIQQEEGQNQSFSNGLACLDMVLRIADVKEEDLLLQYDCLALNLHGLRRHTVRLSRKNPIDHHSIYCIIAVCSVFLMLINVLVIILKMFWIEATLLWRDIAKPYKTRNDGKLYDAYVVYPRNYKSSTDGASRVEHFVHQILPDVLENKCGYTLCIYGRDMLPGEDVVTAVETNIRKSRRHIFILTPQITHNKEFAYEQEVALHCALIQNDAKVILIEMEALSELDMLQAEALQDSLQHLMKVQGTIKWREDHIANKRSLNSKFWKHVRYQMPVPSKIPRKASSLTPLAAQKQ"}, "source": "PubChem BioAssay AID1259354", "about": "(Paczesny and Yang Labs, IUPUI and University of Michigan, 2018)", "note": "Out of some 78,000 compounds screened, about 1,800 (2.3%) were called active. Inconclusive results, whose numbers are uncertain, are shown with a selection of clear calls. No stated cut-off is given here; in the data, active means inhibition above about 30%; inconclusive means mostly about 10% to 28%; inactive means weaker than that.", "data": [{"biological_target": "Interleukin-1 receptor-like 1 (Homo sapiens) (UniProt Q01638)", "test": "inhibitors of human ST2 (IL1RL1) binding to IL-33, primary screen, biochemical, AlphaLISA (AID 1259354)", "conditions": "AlphaLISA ST2-Fc/biotin-IL-33 interaction, 1 h; at 17 µM, stronger effect = higher value", "values": [{"smiles": "COCCC(=O)N1C[C@@H]2C[C@H](C1)c1ccc(NS(=O)(=O)c3cccc(F)c3)c(=O)n1C2", "inhibition": "inconclusive: 17%"}, {"smiles": "CSc1ccc(-c2ccc(=O)n3c2[C@@H]2C[C@@H](CN(S(C)(=O)=O)C2)C3)cc1", "inhibition": "inconclusive: 11%"}, {"smiles": "Fc1ccc(N2CCN(Cc3ccc(F)cc3F)CC2)cc1", "inhibition": "inconclusive: 10%"}, {"smiles": "CCSc1nnc(NC(=O)c2cccn(Cc3ccc(C(F)(F)F)cc3)c2=O)s1", "inhibition": "inconclusive: 13%"}, {"smiles": "CC12CCC3C(CCC4=C(O)C(=O)CCC43C)C1CCC2=O", "note": "(stereo unspecified)", "inhibition": "inactive"}, {"smiles": "O=C(Nc1ccccc1)Nc1cnns1", "inhibition": "inconclusive: 10%"}, {"smiles": "CC(=O)c1ccc(N2CCN(Cc3ccc(C)cc3)CC2)cc1", "inhibition": "inactive"}, {"smiles": "O=c1c(-c2cccc(C(F)(F)F)c2)ccc2n1C[C@H]1C[C@@H]2CN(C2CCOCC2)C1", "inhibition": "inconclusive: 17%"}, {"smiles": "CN1CCC2(CCN(CCN)CC2)C1", "inhibition": "inactive"}, {"smiles": "O=C(c1ccccc1)c1cc(Cl)ccc1NC(=O)c1cc2ccccc2oc1=O", "inhibition": "inactive"}, {"smiles": "COc1cccc(CN2CCN(c3ccc(Cl)cc3)CC2)c1OC", "inhibition": "inconclusive: 17%"}, {"smiles": "O=c1ccc(-c2ccc(Cl)cc2)c2n1C[C@H]1C[C@@H]2CN(S(=O)(=O)c2ccc(F)cc2)C1", "inhibition": "inconclusive: 16%"}, {"smiles": "S=C(NC[C@H]1C[C@@H]2CCN1C[C@@H]2CN1CCN(c2ncccn2)CC1)Nc1ccc(-n2cccn2)cc1", "inhibition": "inconclusive: 18%"}, {"smiles": "S=C(NC1CCCCC1)N1CCC(c2cnc[nH]2)CC1", "inhibition": "inconclusive: 19%"}, {"smiles": "CN1CCN2CCN(c3ncccc3Cl)CC2C1=O", "note": "(stereo unspecified)", "inhibition": "inconclusive: 14%"}, {"smiles": "Cn1nc(-c2ccc3ccccc3c2)cc1[C@H]1CN2CC[C@H]1C[C@@H]2CNC(=O)Nc1ccccc1", "inhibition": "inconclusive: 10%"}, {"smiles": "CCN(CC)C[C@H]1CN2CC[C@H]1C[C@@H]2CNC(=O)c1ccc2c(c1)OCO2", "inhibition": "inconclusive: 16%"}, {"smiles": "CC(C)NC(=O)[C@H]1CN2CCC1C[C@@H]2Cn1cc(CCO)nn1", "note": "(stereo partly specified)", "inhibition": "inconclusive: 12%"}, {"smiles": "O=C1CCCN1CC(=O)N1CCC2(CCCNC2)C1", "note": "(stereo unspecified)", "inhibition": "inconclusive: 12%"}, {"smiles": "CCCS(=O)(=O)Nc1ccc(=O)n2c1[C@@H]1C[C@@H](CN(S(=O)(=O)c3ccccc3)C1)C2", "inhibition": "inconclusive: 14%"}, {"smiles": "O=C(NC1CC1)[C@H]1CN2CCC1C[C@@H]2Cn1cc(C2(O)CCCCC2)nn1", "note": "(stereo partly specified)", "inhibition": "inconclusive: 14%"}, {"smiles": "O=C(c1cccnc1)N1C[C@@H]2C[C@H](C1)c1ccc(NS(=O)(=O)c3ccccc3)c(=O)n1C2", "inhibition": "inconclusive: 18%"}, {"smiles": "C=C[C@H]1CN2CC[C@H]1C[C@@H]2CNC(=S)NC1CC1", "inhibition": "inconclusive: 10%"}, {"smiles": "FC(F)(F)CCc1ccnc(N2CCOC3(CNCCOC3)C2)n1", "note": "(stereo unspecified)", "inhibition": "inactive"}, {"smiles": "CC(C)NC(=O)[C@H]1CN2CC[C@H]1C[C@@H]2Cn1cc(CN(C)C)nn1", "inhibition": "inconclusive: 18%"}, {"smiles": "COc1cccc(CN2CCN(c3cccc(Cl)c3)CC2)c1", "inhibition": "inconclusive: 18%"}, {"smiles": "NC(N)=NOCC[C@H](N)C(=O)O", "inhibition": "inactive"}, {"smiles": "CC[C@@H]1C(=O)OC[C@@H]1Cc1cncn1C", "inhibition": "inconclusive: 11%"}, {"smiles": "Cc1cccc(N2CCN(Cc3ccc(N(C)C)cc3)CC2)c1C", "inhibition": "active: 54%"}, {"smiles": "Nc1cccc(-c2cn(C[C@H]3CC4CCN3C[C@@H]4C(=O)Nc3ccccc3)nn2)c1", "note": "(stereo partly specified)", "inhibition": "inconclusive: 23%"}, {"smiles": "O=C(c1ccncc1)N1C[C@@H]2C[C@H](C1)c1ccc(-c3cncnc3)c(=O)n1C2", "inhibition": "inactive"}, {"smiles": "O=C(NC[C@H]1C[C@@H]2CCN1C[C@@H]2CN1CCN(c2ccccn2)CC1)c1ccccc1", "inhibition": "inactive"}, {"smiles": "O=C(c1cncnc1)N1C[C@@H]2C[C@H](C1)c1ccc(-c3ccc4ccccc4c3)c(=O)n1C2", "inhibition": "inconclusive: 21%"}, {"smiles": "O=C(Nc1ccc(=O)n2c1[C@@H]1C[C@@H](CN(S(=O)(=O)c3ccccc3)C1)C2)c1ccccc1", "inhibition": "inconclusive: 21%"}, {"smiles": "CN1C(=O)C(=Cc2cccc(OCc3ccccc3Cl)c2)C(=O)N(C)C1=O", "inhibition": "inconclusive: 12%"}, {"smiles": "O=[N+]([O-])c1ccc(N2CCN(Cc3ccc(O)cc3)CC2)cc1", "inhibition": "inactive"}, {"smiles": "O=C1CCCC2=C1C(c1cccnc1)Nc1ccccc1N2", "note": "(stereo unspecified)", "inhibition": "inconclusive: 17%"}, {"smiles": "O=C(NC[C@H]1C[C@@H]2CCN1C[C@@H]2CN1CCN(c2ccccn2)CC1)Nc1cccc(F)c1", "inhibition": "inconclusive: 11%"}, {"smiles": "O=[N+]([O-])c1cccc(CN2CCN(c3ccccc3)CC2)c1", "inhibition": "inconclusive: 29%"}, {"smiles": "Cc1ccccc1-n1c(/C=C2\\C(=O)N(C)c3ccccc32)nc2ccccc2c1=O", "inhibition": "active: 49%"}, {"smiles": "CC(C)NC(=O)[C@H]1CN2CC[C@H]1C[C@@H]2Cn1cc(-c2ccccn2)nn1", "inhibition": "inconclusive: 12%"}, {"smiles": "CCN1CCN(Cc2ccsc2)CC1", "inhibition": "inconclusive: 27%"}, {"smiles": "CCOc1cc(CN2CCN(c3ccccc3C)CC2)ccc1O", "inhibition": "inconclusive: 13%"}, {"smiles": "O=C1CSC(c2cccc([N+](=O)[O-])c2)c2c(-c3ccccc3)nn(-c3ccccc3)c2N1", "note": "(stereo unspecified)", "inhibition": "inactive"}, {"smiles": "CC(C)CNC(=S)NC[C@H]1C[C@@H]2CCN1C[C@@H]2c1cc(-c2cccs2)nn1C", "inhibition": "inconclusive: 12%"}, {"smiles": "O=c1ccc(-c2cccs2)c2n1C[C@H]1C[C@@H]2CN(S(=O)(=O)c2cccs2)C1", "inhibition": "inconclusive: 25%"}, {"smiles": "CC(C)(C)c1ccc(-c2cn(C[C@H]3CC4CCN3C[C@@H]4C(=O)N3CCCC3)nn2)cc1", "note": "(stereo partly specified)", "inhibition": "inactive"}, {"smiles": "CC(C)=C1CC[C@]23CO[C@H](C2)[C@@](O)(C(=O)O)CCC13", "note": "(stereo partly specified)", "inhibition": "inconclusive: 13%"}, {"smiles": "Cn1nc(-c2ccccc2)nc2c(=O)n(C)c(=O)nc1-2", "inhibition": "inconclusive: 10%"}, {"smiles": "CN(N=O)c1ccc(O)c(O)c1", "inhibition": "active: 69%"}, {"smiles": "COCCNC(=S)NC[C@H]1C[C@@H]2CCN1C[C@@H]2CN1CCN(c2ccccc2OC)CC1", "inhibition": "inactive"}, {"smiles": "Cc1ccc(C(=O)NC[C@H]2C[C@@H]3CCN2C[C@@H]3c2cc(-c3ccc(F)cc3)nn2C)cc1", "inhibition": "inactive"}, {"smiles": "O=C(Nc1ccc(Br)cc1C(=O)c1ccccc1)c1ccco1", "inhibition": "inactive"}, {"smiles": "Cc1ccc(C2(CN3C[C@@H]4C[C@H](C3)c3cccc(=O)n3C4)CCNCC2)nc1", "inhibition": "inconclusive: 11%"}, {"smiles": "CCCS(=O)(=O)N1C[C@@H]2C[C@H](C1)c1c(-c3ccc(Cl)cc3)ccc(=O)n1C2", "inhibition": "inconclusive: 21%"}, {"smiles": "C/C1=C\\[C@@H](C)C/C=C/[C@H]2[C@@H]3O[C@]3(C)[C@@H](C)[C@H]3[C@H](Cc4c[nH]c5ccccc45)NC(=O)[C@]32C(=O)/C=C/C(=O)[C@@H]1O", "inhibition": "inconclusive: 24%"}]}]}
